Source: publication PMC6486636
No constants are given. Whether binding was seen depends on the method and setting.

Protein sequences, listed by entry. Tags and fused reporters are not part of them. Lines headed by an entry give the natural chain unless they say otherwise; changes in a name come on top. Chains listed by the source or under a name are the forms on record and can include a tag or linker. Residues count along the entry.
UniProt P11940, residues 544-626: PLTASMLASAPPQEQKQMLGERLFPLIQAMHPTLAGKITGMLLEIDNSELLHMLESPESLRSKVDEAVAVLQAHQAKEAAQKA
LARP4A NTD L15AW22A (Q71RC2, form named): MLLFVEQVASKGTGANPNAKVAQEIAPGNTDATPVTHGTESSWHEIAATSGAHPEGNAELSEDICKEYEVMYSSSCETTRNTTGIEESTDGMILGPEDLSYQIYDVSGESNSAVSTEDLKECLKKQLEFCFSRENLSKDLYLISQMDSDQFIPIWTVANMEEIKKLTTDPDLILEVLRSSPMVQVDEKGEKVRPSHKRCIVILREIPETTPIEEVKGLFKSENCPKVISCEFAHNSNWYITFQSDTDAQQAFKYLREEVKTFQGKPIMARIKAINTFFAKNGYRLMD

Target: His-SUMO-MLLE (PABPC1 MLLE domain 544-626 fused with a His-tagged SUMO tag) (UniProt P11940)
Assay: pull-down; His-SUMO-MLLE (200 ug) as bait mixed with 250 ug untagged LARP4A protein on ice, Ni-NTA agarose, washes in 50 mM Tris pH 7.25, 100 mM KCl, 0.2 mM EDTA, 1 mM DTT, 10 mM imidazole, elution with 500 mM imidazole, Coomassie SDS-PAGE; both purified

binding: no binding
Substance: LARP4A NTD L15AW22A (from UniProt Q71RC2 1-287) (domain or fragment)
